Measurements from PubChem BioAssay AID292 (DTP/NCI, 2004).
The list shows only some results of the screen, not a fair sample: it gathers tests that were run many times, whatever their T/C, doses with no T/C, and many T/C values between a quarter and a half above the control. Other doses and runs of a compound stand elsewhere. T/C gives the treated animals as a percentage of the vehicle group. Some entries give survivors of the animals treated and no T/C: the source files T/C as zero there, which appears to mark a toxic dose or a test without result, not a measured value. Some doses without a T/C left all or most animals alive at the check, yet need not have been tolerated: the source hardly ever lists a survival T/C far under the control, and the zero likely stands for such cases as well. Survivors were counted at the toxicity check, usually on the fifth day, unless a day is given; later deaths do not show. Schedules are NCI's codes, taken here to give the interval after Q, in days (D) or hours (H), and the number of doses after X. Some entries were tested several times; their values stand side by side, smallest first. For survival time, the PubChem record calls one and a half times the control and up active, and a quarter to a half above the control has no call in these data; cut-offs in other NCI protocols can differ. Some T/C values carry the count of animals alive at the toxicity check (mostly the fifth day); without a count, all were alive then.

System: B6C3F1 mice, ip Sarcoma M5076, median survival T/C
Test: NCI In Vivo Anticancer Drug Screen. Data for tumor model Sarcoma M5076 (intraperitoneal) in B6C3F1 mice
Settings: T/C endpoint: median survival time, higher T/C = longer survival
Procedure, shortened: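 Mice carrying the transplanted tumour received compound treatment. Survival was recorded, and each value is the treated-group measurement divided by that of the vehicle-dosed control group.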

[1] = dose: 500.0 mg/kg/injection, schedule: Q04DX004 (ip), vehicle: saline with Tween-80
[2] = dose: 100.0 mg/kg/injection, schedule: Q04DX004 (ip), vehicle: saline with Tween-80
[3] = dose: 800.0 mg/kg/injection, schedule: Q04DX004 (ip), vehicle: Klucel (hydroxypropylcellulose) (HPC)
[4] = dose: 400.0 mg/kg/injection, schedule: Q04DX004 (ip), vehicle: saline with Tween-80
[5] = dose: 200.0 mg/kg/injection, schedule: Q04DX004 (ip), vehicle: saline with Tween-80
[6] = dose: 800.0 mg/kg/injection, schedule: Q04DX004 (ip), vehicle: saline with Tween-80
[7] = dose: 200.0 mg/kg/injection, schedule: Q04DX004 (ip), vehicle: Klucel (hydroxypropylcellulose) (HPC)
[8] = dose: 100.0 mg/kg/injection, schedule: Q04DX004 (ip), vehicle: Klucel (hydroxypropylcellulose) (HPC)
[9] = dose: 400.0 mg/kg/injection, schedule: Q04DX004 (ip), vehicle: Klucel (hydroxypropylcellulose) (HPC)
[10] = dose: 150.0 mg/kg/injection, schedule: Q04DX004 (ip), vehicle: saline with Tween-80
[11] = dose: 300.0 mg/kg/injection, schedule: Q04DX004 (ip), vehicle: saline with Tween-80
[12] = dose: 50.0 mg/kg/injection, schedule: Q04DX004 (ip), vehicle: saline with Tween-80

## CC(C)NC(=O)OCc1c(COC(=O)NC(C)C)c(-c2ccc(Cl)c(Cl)c2)n2c1CCC2
[1]
  survivor count: 5 of 10 on day 14
dose: 833.33 mg/kg/injection, schedule: Q04DX004 (ip), vehicle: saline with Tween-80
  survivor count: 0 of 10 on day 14
dose: 1200.0 mg/kg/injection, schedule: Q04DX004 (ip), vehicle: saline with Tween-80
  survivor count: 1 of 10 on day 14

## OC1(c2cccc(Cl)c2)C2=NCCCN2c2ccccc21 (stereo unspecified)
[2]
  survivor count: 0 of 10 on day 14

## CCN1CCC(=C(c2ccccc2)c2ccccc2)C1
dose: 75.0 mg/kg/injection, schedule: Q04DX004 (ip), vehicle: Klucel (hydroxypropylcellulose) (HPC)
  survivor count: 6 of 10 on day 14
dose: 150.0 mg/kg/injection, schedule: Q04DX004 (ip), vehicle: Klucel (hydroxypropylcellulose) (HPC)
  survivor count: 0 of 10 on day 14
dose: 300.0 mg/kg/injection, schedule: Q04DX004 (ip), vehicle: Klucel (hydroxypropylcellulose) (HPC)
  survivor count: 0 of 10 on day 14

## N/C(=N/N=C/c1cc(Br)cc(Br)c1O)NO
dose: 200.0 mg/kg/injection, schedule: Q04DX004 (ip), vehicle: suspension in saline
  survivor count: 5 of 10 on day 14
dose: 400.0 mg/kg/injection, schedule: Q04DX004 (ip), vehicle: suspension in saline
  survivor count: 3 of 10 on day 14

## N#CC1C(=O)NC(=O)C(C#N)C1C1C(=O)NC2CCCCC21 (stereo unspecified)
dose: 700.0 mg/kg/injection, schedule: Q04DX004 (ip), vehicle: saline with Tween-80
  survivor count: 10 of 10

## CCOC1NC(=O)Oc2ccccc21 (stereo unspecified)
[3]
  survivor count: 0 of 10 on day 14

## Cc1c2c(ccc3ccccc32)c[n+]2ccccc12
dose: 12.0 mg/kg/injection, schedule: Q04DX004 (ip), vehicle: saline with Tween-80
  survivor count: 3 of 10 on day 14 and 6 of 10 on day 14
dose: 24.0 mg/kg/injection, schedule: Q04DX004 (ip), vehicle: saline with Tween-80
  survivor count: 0 of 10 on day 14 and 5 of 10 on day 14

## O=S1ON=C(C2CCC(C3=NOS(=O)O3)C2)O1 (stereo unspecified)
[4]
  survivor count: 3 of 10 on day 14

## CC(/C=C/C1OC(=O)C=CC1C)=C\C(C)C/C=C/C(C)=C/C(C)C(=O)C(C)C(O)C(C)C/C(C)=C/C(=O)O (stereo unspecified)
dose: 200.0 micrograms/kg/injection, schedule: Q04DX004 (ip), vehicle: saline + alcohol
  T/C: 145 % of control

## c1ccc(-c2nc3cc4c(cc3n3cccc23)oc2ccccc24)cc1
[2]
  survivor count: 10 of 10 on day 14
[5]
  survivor count: 8 of 10 on day 14

## O=C(O)CCCCCCCC(=O)O
dose: 600.0 mg/kg/injection, schedule: Q04DX004 (ip), vehicle: distilled water + Tween-80
  survivor count: 5 of 10 on day 14
dose: 1200.0 mg/kg/injection, schedule: Q04DX004 (ip), vehicle: distilled water + Tween-80
  survivor count: 0 of 10 on day 14

## O=C(c1ncccc1O)N1CCCCC1
dose: 162.5 mg/kg/injection, schedule: Q04DX004 (ip), vehicle: distilled water + Tween-80
  survivor count: 10 of 10 on day 14

## Cc1[nH]c(=O)[nH]c(=O)c1C=O
[6]
  survivor count: 4 of 10 on day 14

## O=C1CCCCCC2=NC12 (stereo unspecified)
[7]
  survivor count: 0 of 10 on day 14

## CO[C@@H]1C2=CC=CC=C[C@H]2n2c(=O)n(C)c(=O)n21
dose: 600.0 mg/kg/injection, schedule: Q04DX004 (ip), vehicle: other
  survivor count: 0 of 10 on day 14

## COC(COC(=O)N1CCN(C=O)CC1)C1=C(N2CC2)C(=O)C(C)=C(N2CC2)C1=O (stereo unspecified)
dose: 2.16 mg/kg/injection, schedule: Q04DX004 (ip), vehicle: saline
  T/C: 126 % of control
dose: 16.67 mg/kg/injection, schedule: Q04DX004 (ip), vehicle: saline
  survivor count: 0 of 10 on day 14
dose: 24.0 mg/kg/injection, schedule: Q04DX004 (ip), vehicle: saline
  survivor count: 1 of 10 on day 14

## CCOc1ccc(-c2nc3ccc(-c4nc5ccc(N6CCN(C)CC6)cc5[nH]4)cc3[nH]2)cc1
dose: 50.0 mg/kg/injection, schedule: Q04DX004 (ip), vehicle: saline
  survivor count: 0 of 10 on day 14

## O=C(NNC(=O)c1cccc(C(=O)NNC(=O)c2ccc(Cl)c(Cl)c2)n1)c1ccc(Cl)c(Cl)c1
[8]
  survivor count: 6 of 10 on day 14
[7]
  survivor count: 7 of 10 on day 14
[9]
  survivor count: 2 of 10 on day 14

## O=CC(NC(=O)N(CCCl)N=O)C(O)C(O)C(O)CO (stereo unspecified)
dose: 20.0 mg/kg/injection, schedule: Q04DX005 (ip), vehicle: saline
  survivor count: 8 of 8 on day 17

## O=C(Nc1cccc2ccccc12)C1C(=O)C(=O)N(c2cccc3ccccc23)C1=O (stereo unspecified)
dose: 600.0 mg/kg/injection, schedule: Q04DX004 (ip), vehicle: Klucel (hydroxypropylcellulose) (HPC)
  survivor count: 5 of 10 on day 14

## C=C(C)C1C2CC3(C)C4(CO4)C4OC4C3(O)C1C(=O)O2 (stereo unspecified)
dose: 2.0 mg/kg/injection, schedule: Q04DX004 (ip), vehicle: Klucel (hydroxypropylcellulose) (HPC)
  survivor count: 3 of 10 on day 14
dose: 4.0 mg/kg/injection, schedule: Q04DX004 (ip), vehicle: Klucel (hydroxypropylcellulose) (HPC)
  survivor count: 0 of 10 on day 14

## NC(=O)C(N)C(F)c1ccccc1 (stereo unspecified)
[1]
  survivor count: 3 of 10 on day 14

## Nc1c(/C=C/c2cc3cc(C4=NCCN4)ccc3o2)[nH]c2cc(C3=NCCN3)ccc12
dose: 25.0 mg/kg/injection, schedule: Q04DX004 (ip), vehicle: Klucel (hydroxypropylcellulose) (HPC)
  T/C: 128 % of control [9 of 10 alive on day 14]
dose: 50.0 mg/kg/injection, schedule: Q04DX004 (ip), vehicle: Klucel (hydroxypropylcellulose) (HPC)
  T/C: 134 [7 of 10 alive on day 14] and 137 % of control [8 of 10 alive on day 14]
[8]
  survivor count: 3 of 10 on day 14 and 9 of 10 on day 14
[7]
  survivor count: 0 of 10 on day 14
[9]
  survivor count: 0 of 10 on day 14

## CCN(CC)Cc1cc2[nH]c3c4ccc(Cl)cc4ncc3c2cc1OC (tested in a mixture with another compound)
[10]
  survivor count: 4 of 10 on day 14
[5]
  survivor count: 3 of 10 on day 14
[11]
  survivor count: 0 of 10 on day 14
[4]
  survivor count: 0 of 10 on day 14

## C=C(C)[C@H]1Cc2c(ccc3c2O[C@@H]2COc4cc(OC)c(OC)cc4[C@@H]2C3=O)O1
[12]
  survivor count: 1 of 10 on day 14
[2]
  survivor count: 0 of 10 on day 14

## N#CC1C(=O)NC(=S)NC1CCc1ccccc1 (stereo unspecified)
[9]
  survivor count: 5 of 10 on day 14
[3]
  survivor count: 0 of 10 on day 14

## CCCCNP1(NCCCC)=NP(NCCCC)(NCCCC)=NP(NCCCC)(NCCCC)=NP(NCCCC)(NCCCC)=N1
[12]
  survivor count: 1 of 10 on day 14
[2]
  survivor count: 2 of 10 on day 14
[5]
  survivor count: 1 of 10 on day 14

## CN(C)N=Nc1ccc(C(N)=O)cc1
dose: 25.0 mg/kg/injection, schedule: Q04DX004 (ip), vehicle: saline with Tween-80
  T/C: 132 % of control
[12]
  T/C: 125, 140, 146 % of control
[2]
  T/C: 139 and 149 % of control
[5]
  T/C: 140 and 149 % of control [8 of 10 alive on day 14]
[4]
  survivor count: 0 of 10 on day 14 and 7 of 10 on day 14

## Cn1c(=O)c2nncnc2n(C)c1=O
[4]
  survivor count: 1 of 10 on day 14
[6]
  survivor count: 0 of 10 on day 14

## [Cl][Hg][Cl]
dose: 0.19 mg/kg/injection, schedule: Q04DX004 (ip), vehicle: saline
  survivor count: 8 of 10 on day 14
dose: 6.0 mg/kg/injection, schedule: Q04DX004 (ip), vehicle: saline
  survivor count: 4 of 10 on day 14
dose: 6.25 mg/kg/injection, schedule: Q04DX004 (ip), vehicle: saline
  survivor count: 1 of 10 on day 14
dose: 12.5 mg/kg/injection, schedule: Q04DX004 (ip), vehicle: saline
  survivor count: 0 of 10 on day 14

## CN1CCN(c2c(C(=O)Nc3ccc([N+](=O)[O-])cc3)cc([N+](=O)[O-])cc2[N+](=O)[O-])CC1
[10]
  survivor count: 10 of 10 on day 14
[11]
  survivor count: 10 of 10 on day 14
dose: 600.0 mg/kg/injection, schedule: Q04DX004 (ip), vehicle: saline with Tween-80
  survivor count: 10 of 10 on day 14

## C=C1c2cccc(O)c2C(O)=C2C(=O)[C@]3(O)C(O)=C(C(N)=O)C(=O)[C@@H](N(C)C)[C@@H]3[C@@H](O)[C@H]12
[7]
  survivor count: 1 of 10 on day 14
